This experiment addresses FVIIa (human) (UniProt P08709). As to the kind of experiment: ITC. In general terms: ITC needs no label: the signal is the heat of the interaction.

By UniProt entry, the sequences of proteins in these tests, tags left out. Where a name states a change or a piece, a line headed by the entry shows the natural chain unless it says otherwise.
UniProt P08709: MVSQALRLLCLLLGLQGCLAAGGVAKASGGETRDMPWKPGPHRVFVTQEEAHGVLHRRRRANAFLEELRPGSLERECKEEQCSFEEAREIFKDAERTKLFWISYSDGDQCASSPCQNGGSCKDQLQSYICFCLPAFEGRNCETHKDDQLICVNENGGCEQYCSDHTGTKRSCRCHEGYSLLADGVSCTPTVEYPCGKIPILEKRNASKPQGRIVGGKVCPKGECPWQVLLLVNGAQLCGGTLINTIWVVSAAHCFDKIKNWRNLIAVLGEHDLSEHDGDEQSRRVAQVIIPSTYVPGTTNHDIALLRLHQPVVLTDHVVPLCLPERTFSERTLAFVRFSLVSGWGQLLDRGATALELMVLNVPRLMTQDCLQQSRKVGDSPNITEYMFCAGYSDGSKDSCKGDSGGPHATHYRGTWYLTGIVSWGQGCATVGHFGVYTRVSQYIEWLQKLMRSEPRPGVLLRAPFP

These are yes or no findings as the source states them, for the method shown. Binding can be weak; no strength is given.

B1: hemextin AB complex (protein)
chain 1: LKCKNKLVPFLSKTCPEGKNLCYKMTMLKMPKIPIKRGCTDACPKSSLLVKVVCCNKDKCN
chain 2: LKCKNKVVPFLKCKNKVVPFLCYKMTLKKVPKIPIKRGCTDACPKSSLLVNVMCCKTDKCN
With B1, the binding entry is given as “binds”.

The values above are taken from patent US20090180995A1, “NOVEL ANTICOAGULANT POLYPEPTIDES AND COMPLEX” (National University of Singapore, priority 2005, published 2009).
